Laboratory results from PubChem BioAssay AID1066 (SRMLSC, 2008).
Screen size: about 190,000 compounds; about 790 (0.42%) were called active. Inconclusive means that the source gave no clear call. Such entries were picked first, then a sample of the others.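 How the source made its calls: active means inhibition above a set limit, the median over all tested compounds plus 3 SD (cut at about 9.5% in these data); inconclusive means no clear call, values can overlap the other calls; inactive means the rest.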

Tested on: HMG-CoA reductase (Enterococcus faecalis, mvaE)
Experiment: class II HMG-CoA reductase enzyme inhibition – biochemical, Enterococcus faecalis, primary screen (AID 1066);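 further: enzyme runs in reverse so mevalonate oxidation gives rising NADPH absorbance; 0% = complete reaction with DMSO and 100% = background rate lacking mevalonate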
Conditions: purified E. faecalis HMGR, NADPH absorbance 340 nm kinetic; at 10 µM; hits give high values

Compound | inhibition
Cc1cc(C)c(OCC(O)CN2CCN(c3ccccn3)CC2)c(C)c1 (configuration not stated) | inconclusive: 11.2%
COC(=O)c1ccc(NC(=O)Nc2ccccc2F)cc1 | active: 16.9%
COC(=O)c1c(NC(NC(C)=O)C(Cl)(Cl)Cl)sc2c1CCCC2 (configuration not stated) | inactive: -0.72%
Cc1cc(C(=O)N[C@H](c2ccccc2)[C@@]2(C)C[C@@H]2[C@@H](C)C(=O)Nc2ccc3ccccc3c2)no1 | active: 24.8%
COc1ccc(C(=O)N2CCC(C(=O)Nc3ccccc3C)CC2)cc1OC | active: 10.1%
COc1cccc(NC(=O)c2cc(-c3ccncc3)nc3c(C)cc(C)cc23)c1 | inconclusive: 7.67%
Cc1cccc2c(C(=O)N3CCN(C(=O)c4ccco4)CC3)cc(-c3cccc(Br)c3)nc12 | inconclusive: 49.6%
